# In all, about 330,000 compounds went through this assay and about 7,700 (2.3%) were called active. Inconclusive results, whose numbers are uncertain, are shown with a selection of clear calls. Calls come from the whole dose curve; as a rule, active = well fitted inhibition curve with a large enough effect; inconclusive = small, poorly fitted or top-dose-only effect, or effect the other way; inactive = flat fitted curve, though single readings scatter. A potency beside an inconclusive call is a rough fit, not a confirmed value.
# Assay: qHTS screen for small molecules that inhibit ELG1-dependent DNA repair in human embryonic kidney (HEK293T) cells expressing luciferase-tagged ELG1; note: nearly all actives have a fitted effect of over 55% in size
# Details: HEK293T ELG1-luciferase reporter, luminescence, 16 h, DNA damage induced by 5-fluorouridine; activity change, negative = inhibition: at 46.1 µM (top of the series)
# How it was run: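 HEK293T cells expressing luciferase-tagged ELG1 (2,000/well) received 5-Fluorouridine plus compound or DMSO for 16 hr at 37 °C. Luciferase was read by ONE-Glo luminescence after 30 min at room temperature.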
# % is set by controls: 0 for no effect and ±100 for the full control effect; potency is the fitted concentration of half-maximal effect.
SMILES,Potency,"activity change, negative = inhibition"
Cc1cc(N)n(-c2ccccn2)n1,"inconclusive: 23.1 µM [activator, partial curve]",
CC(C)COc1cccc(-c2cc(C(=O)Nc3ccon3)c3ccccc3n2)c1,"inconclusive: 16.4 µM [inhibitor, partial curve]",
N#C/C(=C\c1ccc2c(c1)OCCO2)C(=O)NC1CCCCC1,"inconclusive: 20.6 µM [activator, partial curve]",
COC(=O)c1sc(NC(=O)COc2ccccc2C)nc1C,"inconclusive: 29.1 µM [activator, single point]",
COC(=O)c1sc(SC)c(S(=O)(=O)C(C)C)c1N/N=C(\C#N)C(=O)c1ccccc1,"inconclusive: 29.1 µM [inhibitor, single point]",
CN1CCN(C(=O)c2ccc(Oc3ccc([N+](=O)[O-])cc3)cc2)CC1,"inconclusive: 29.1 µM [inhibitor, single point]",
CSC1=C(C#N)C(c2ccccc2Cl)C(C(=O)c2cccs2)C(O)(C(F)(F)F)N1 (stereo not drawn),"inconclusive: 20.6 µM [inhibitor, single point]",
O=C(c1ccco1)N1CCCC(Nc2ccc3c(c2)OCCO3)C1 (stereo not drawn),"inconclusive: 20.6 µM [activator, partial curve]",
CC1CC(=O)N(CC(=O)NC2CCCCC2)c2ccccc2S1 (stereo not drawn),,inactive: 0.575%
COc1ccc(Cl)cc1C(=O)NNC(=O)COC(=O)CCN=C1NS(=O)(=O)c2ccccc21,,inactive: 7.91%
CCOc1ccccc1Nc1nnc(SCC(=O)Nc2nc(-c3ccc(OC)cc3)cs2)s1,,inactive: -6.88%
CCN(CC)c1ccc(C(=O)NNC(=O)c2cccn2C)cc1,"inconclusive: 7.3 µM [activator, partial curve]",
Cc1onc(-c2ccccc2)c1C1=N/C(=C\c2ccccc2F)C(=O)O1,,inactive: 1.05%
Cc1ccnc(NC(=O)c2cccs2)c1,"inconclusive: 20.6 µM [activator, single point]",
COC(=O)c1ccc(CSc2nc3cc(Cl)ccc3o2)cc1,"inconclusive: 20.6 µM [activator, partial curve, poor fit]",
Nc1c(Br)c(=O)[nH]c(=O)n1-c1ccc(F)cc1,,inactive: 21.8%
Cn1c(C(=O)N2CCN(Cc3ccc4c(c3)OCO4)CC2)cc2c(=O)n(C)c3ccccc3c21,"inconclusive: 23.1 µM [inhibitor, single point]",
Cc1nc2cc3sc(C)nc3cc2s1,"inconclusive: 14.6 µM [activator, partial curve]",
Cn1c(CCC(=O)Nc2cc(S(C)(=O)=O)ccc2Cl)nc2cc(S(=O)(=O)N3CCOCC3)ccc21,"inconclusive: 9.2 µM [activator, single point]",
COc1cc(OC)c(C2=NOC(C(=O)N3CCc4ccccc4C3)C2)cc1Cl (stereo not drawn),"inconclusive: 29.1 µM [inhibitor, single point]",
CC(Nc1nc(-c2ccc3c(c2)NC(=O)CO3)cs1)c1ccccc1 (stereo not drawn),"inconclusive: 20.6 µM [inhibitor, single point]",
CCN(CC)c1ccc(S(=O)(=O)N2CCOCC2)cc1NC(=O)COC(=O)c1cccnc1SC,,inactive: -26.1%
Cn1c(NC(=O)CCc2ccccc2)cc(=O)n(C)c1=O,"inconclusive: 14.6 µM [activator, partial curve]",

SMILES,Potency,"activity change, negative = inhibition"
COc1ccc(-c2ccc(S(=O)(=O)n3nc(OC(=O)c4cccs4)cc3N)cc2)cc1,,inactive: 8.32%
CCc1n[nH]c(=S)n1/N=C/c1c(O)ccc2ccccc12,,inactive: 3.83%
C=C(C)C1(O)OC(=O)C=C1OC (stereo not drawn),,inactive: 6.83%
COc1ccc(NC(=O)CCCn2cnc3ccccc3c2=O)c(OC)c1,"inconclusive: 1.03 µM [inhibitor, full curve, poor fit]",
Cn1c(-c2ccc(-c3ccccc3)cc2)c[nH]c1=S,"inconclusive: 10.3 µM [activator, partial curve]",
Cn1c(=O)n(Cc2ccccc2)c(=O)c2c1nc1n2CCCN1CCc1ccccc1,active: 23.1 µM,
COCCNC(=O)NC(=O)CN1CCN(C(c2ccccc2)c2ccccc2)CC1,,inactive: -10.4%
CCN(CC)S(=O)(=O)c1cc(NC(=O)Cn2ncc(Cl)c(Cl)c2=O)ccc1C,"inconclusive: 29.1 µM [inhibitor, single point]",
CCCn1c(=O)c(C(=O)NCc2ccccc2Cl)c(O)c2ccccc21,"inconclusive: 11.2 µM [activator, single point]",
CCCc1ccc2c(N)c(C#N)sc2n1,"inconclusive: 18.4 µM [activator, partial curve]",
O=C(N/N=C/c1cccc(OC2CSC2)c1)c1ccccc1O,"inconclusive: 29.1 µM [activator, single point]",
O=C(CCc1ccccc1)NNC(=O)Nc1cccc(Cl)c1,,inactive: -14.8%
COc1ccccc1NC(=O)c1cnc2n(c1=O)CCS2,"inconclusive: 35.5 µM [activator, single point]",
CCn1c(C)cc(C(=O)COC(=O)c2cccnc2SC)c1C,"inconclusive: 2.91 µM [activator, partial curve]",
O=S(=O)(Nc1nc2cc3c(cc2nc1Cl)OCCO3)c1ccccc1,"inconclusive: 0.103 µM [activator, full curve, poor fit]",
CCCCOc1ccc(C(=O)NCC(=O)N2CC(C)CC(C)C2)cc1 (stereo not drawn),"inconclusive: 9.2 µM [inhibitor, single point]",
COC(=O)/C=c1/s/c(=C(/C#N)C(=O)N2CCOCC2)n(-c2ccccc2)c1=O,"inconclusive: 25.9 µM [activator, single point]",
CC(C)CCN1C(=O)c2ccc(C(=O)Nc3ccccc3C(=O)O)cc2C1=O,,inactive: 15.9%
O=C(O)CCC(=O)Nc1ccccc1C(=O)NCCc1ccccc1,"inconclusive: 18.4 µM [activator, partial curve]",
O=C(N/N=C/c1ccc(OC(=O)c2ccco2)cc1)c1ccccn1,"inconclusive: 16.4 µM [activator, partial curve]",
Cc1cccc(C(=O)NCC(=O)OCC(=O)c2cc(C)n(CC3CCCO3)c2C)c1 (stereo not drawn),"inconclusive: 23.1 µM [activator, single point]",
COc1ccc(C(=O)/C=C/C(=O)N(CC(=O)NC2CCCCC2)Cc2ccccc2OC)c(O)c1,"inconclusive: 29.1 µM [inhibitor, single point]",
O=C(N/N=C/c1ccccn1)C1CC1,"inconclusive: 18.4 µM [activator, partial curve, poor fit]",

SMILES,Potency,"activity change, negative = inhibition"
Cn1nc(OC(=O)Nc2ccc(F)cc2)cc1C(F)(F)F,"inconclusive: 7.31 µM [activator, partial curve, poor fit]",
Cc1ccc(N=Cc2sc(O)c3ccccc23)cc1,"inconclusive: 3.66 µM [activator, full curve]",
COCCN(CCOC)S(=O)(=O)c1ccc(C(=O)Nc2sc3c(c2C(N)=O)CCCCC3)cc1,"inconclusive: 6.51 µM [activator, partial curve]",
O=C(c1ccncc1)N1c2ccccc2Sc2ccccc21,"inconclusive: 18.3 µM [inhibitor, single point]",
O=C(CNc1cccc(S(=O)(=O)N2CCCC2)c1)Nc1cccc(F)c1,,inactive: -17.6%
COc1cc2c(cc1OC)CN(C(=S)Nc1ccccc1)CC2,,inactive: -13.6%
CCCNC(=O)[C@H](Cc1c[nH]c2ccccc12)NC(=O)c1ccccc1Cl,"inconclusive: 20.6 µM [activator, single point]",
Cc1cc(C)cc(Oc2nc(-c3ccccc3)cc(C)c2S(C)(=O)=O)c1,"inconclusive: 20.6 µM [inhibitor, single point]",
Cc1cc(C)cc(N(CCC(=O)Nc2nnc(C3CC3)s2)S(=O)(=O)c2ccc(Cl)cc2)c1,"inconclusive: 7.31 µM [inhibitor, partial curve, poor fit]",
COc1ccc(N2CCN(C(=O)c3ccc(F)cc3)CC2)c([N+](=O)[O-])c1,"inconclusive: 29.1 µM [inhibitor, single point]",
Cc1c(C(=O)N2CCCC(C)C2)sc2ncnc(N3CCCCC3C)c12 (stereo not drawn),"inconclusive: 29.1 µM [inhibitor, single point]",
O=C(Nc1cccnc1)C1CCCN(S(=O)(=O)c2ccccc2)C1 (stereo not drawn),"inconclusive: 23.1 µM [inhibitor, single point]",
O=[N+]([O-])c1ccc(N/N=C/c2c[nH]c3ccccc23)cc1,"inconclusive: 18.4 µM [activator, single point]",
COCCn1c(SCC(=O)Nc2sccc2C(N)=O)nc2cc(Cl)ccc2c1=O,active: 23.1 µM,
COc1ccc(C(=O)Nn2c(SCC(=O)NC3CCCC3)nc3ccccc3c2=O)cc1,"inconclusive: 0.206 µM [activator, full curve, poor fit]",
S=c1[nH]nc(C2CCCCC2)n1/N=C/c1ccc(Br)s1,,inactive: 9.67%
O=C(NC1CCCCC1)c1cc(-c2cccs2)on1,"inconclusive: 2.31 µM [activator, partial curve]",
O=C(CN1C2=NCCCN2c2ccccc21)c1cccs1,,inactive: -16.2%
COc1ccc(S(=O)(=O)N2CCC(C(=O)N3CCc4ccccc4C3)CC2)cc1OC,"inconclusive: 29.1 µM [inhibitor, single point]",
C=CCn1cc(C(=O)NCc2ccc(Cl)cc2)c(=O)c2cc(S(=O)(=O)N(CC)CC)ccc21,active: 8.2 µM,
Cn1c2ccccc2c2cc(C(=O)OCC(=O)N3CC(=O)Nc4ccccc43)sc21,"inconclusive: 29.1 µM [inhibitor, single point]",
O=C(NNC(=O)c1ccccc1F)c1cccs1,"inconclusive: 20.6 µM [activator, partial curve]",

# Reformatted with bars between the fields: part of the list above.
SMILES | Potency | activity change, negative = inhibition
S=c1[nH]nc(C2CCCCC2)n1/N=C/c1ccc(Br)s1 |  | inactive: 9.67%
O=C(NC1CCCCC1)c1cc(-c2cccs2)on1 | inconclusive: 2.31 µM [activator, partial curve] | 
O=C(CN1C2=NCCCN2c2ccccc21)c1cccs1 |  | inactive: -16.2%

# Source: PubChem BioAssay AID504467 (National Center for Advancing Translational Sciences (NCATS), 2011)
